For at least one compound, name, drawing or mass did not settle the structure.
Target: human serum albumin (Homo sapiens, UniProt P02768)
Experiment: X-ray crystallography of human serum albumin/drug complexes: binding location
Set-up: Domain I (1 through 192); Domain II (193 through 395);Domain III (396 THROUGH 585)
Description: This information was derived from crystallization of the protein/ligand to create a protein/ligand complex and determining the atomic structure of the resulting complex by x-ray diffraction. The ligand may be any ligand capable of binding to the human serum albumin protein, and is preferably a ligand that binds to one of the binding sites described herein.
One method of obtaining information regarding the structural; characteristics of the albumin binding regions is through protein crystallization processes.
By applying standard crystallization protocols to the above described crystallizable compositions, crystals of the human serum albumin complex may be obtained. This, an even further aspect of this invention relates to a method of preparing human serum albumin complex-containing crystals. The method comprises the steps of • (a) obtaining a crystallizable composition comprising a human serum albumin protein, divalent cations, and a ligand capable of binding to the protein, and • (b) subjecting the composition of step (a) to conditions which promote crystallization.
The “active site binding pockets” or “active site” of human serum albumin refers to one of several areas determined experimentally on the human serum albumin protein surface where substrates bind.

The chains behind the UniProt entries cited, without tags or fusion partners. Residues count along the entry.
UniProt P02768, 25-609: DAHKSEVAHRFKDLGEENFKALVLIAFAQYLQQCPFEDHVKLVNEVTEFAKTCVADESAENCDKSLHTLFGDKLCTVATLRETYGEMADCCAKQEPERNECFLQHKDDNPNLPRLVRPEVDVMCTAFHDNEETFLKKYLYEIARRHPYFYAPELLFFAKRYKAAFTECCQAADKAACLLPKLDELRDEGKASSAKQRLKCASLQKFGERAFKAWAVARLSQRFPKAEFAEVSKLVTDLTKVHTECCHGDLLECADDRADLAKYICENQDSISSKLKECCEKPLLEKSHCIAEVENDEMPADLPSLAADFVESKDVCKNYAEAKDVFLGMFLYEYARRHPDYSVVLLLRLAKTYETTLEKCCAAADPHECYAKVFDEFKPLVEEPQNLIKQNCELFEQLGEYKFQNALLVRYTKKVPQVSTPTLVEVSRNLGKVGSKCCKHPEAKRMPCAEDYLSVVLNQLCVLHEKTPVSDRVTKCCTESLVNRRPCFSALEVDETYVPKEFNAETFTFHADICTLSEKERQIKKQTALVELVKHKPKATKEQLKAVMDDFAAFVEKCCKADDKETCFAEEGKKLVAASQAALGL

SMILES	binding location on HSA stated in text (this survey, FIG. 6B)	Binding site of the Drug-Albumin Complex (site heading the list of contacting residues) (Table II, Phase II, refined coordinates, listed residues within 5 Å of bound ligand)
C=CC1=C(C)/C(=C/c2[nH]c(Cc3[nH]c(/C=C4\NC(=O)C(C)=C4C=C)c(C)c3CCC(=O)O)c(CCC(=O)O)c2C)NC1=O [Bilirubin]	subdomain IB	–
COc1ccnc(C[S+]([O-])c2nc3ccc(OC(F)F)cc3[nH]2)c1OC (centres unmarked) [Pantoprazole]	–	Site IIA, Y150, K195, L198, K199, S202, F211, W214, A215, R218,

Reference: US20070219767A1, “ATOMIC COORDINATES OF ALBUMIN DRUG COMPLEXES AND METHOD OF USE OF PHARMACEUTICAL DEVELOPMENT” (priority 2003, published 2007)
